Data as given in PubChem BioAssay AID1487 (National Center for Advancing Translational Sciences (NCATS), 2009).
Among all 200,000 compounds or so, about 25 (0.01%) were called active. Inconclusive means that the source gave no clear call. Such entries were picked first, then a sample of the others. Calls follow the shape of the dose curve; as a rule, active = well fitted inhibition curve with a large enough effect in the signal ratio, with a control signal flat (not every such curve was filed as active); inconclusive = small, poorly fitted or top-dose-only effect, or effect the other way, or a change in a side signal; inactive = flat fitted curve, though single readings scatter; the % refers to the signal ratio. Potencies beside an inconclusive call are fits to weak or partial responses and may not hold up.

Assay: qHTS Assay for Modulators of Lamin A Splicing
Settings: HeLa LMNA splicing GFP/RFP minigene ratio, 48 h; ratio change, negative = inhibition: at 46.1 µM (top of the series) unless noted
Procedure, shortened: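 S3 HeLa cells stably expressing lamin A-EGFP splicing minigene plus DsRed2, 600 cells/well, 48 h compound exposure at 37C. Laser-scanning cytometry; analysed as GFP (500-530 nm)/RFP (575-640 nm) total intensity ratio; 0.5% DMSO vehicle.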
% is scaled to controls: 0 for no effect and ±100 for the full control effect; potency is read from the fitted curve at half-maximal effect.

**Q.** Which ratio change, negative = inhibition does the source give for `O=C(Nc1ccc(SC(F)F)cc1)c1cc(-c2cccs2)on1` here?
**A.** Its ratio change, negative = inhibition is inconclusive: 33.8% [at 46 µM].

**Q.** With `CNC(=O)c1cc2cc(OC)ccc2oc1=N` as the compound, how does the “ratio change, negative = inhibition” value read?
**A.** Its value is inactive: 1.13%.

**Q.** Which ratio change, negative = inhibition does the source give for `CCC(=O)N1CCCc2cc(S(=O)(=O)N3CCC(C(=O)Nc4ccc(F)c(F)c4)CC3)ccc21` here?
**A.** The ratio change, negative = inhibition was inconclusive: -13.7% [at 46 µM].

**Q.** For `CNC(=O)c1cc(C(=O)c2ccc(C(F)(F)F)cc2F)c[nH]1`, which ratio change, negative = inhibition is on record?
**A.** The ratio change, negative = inhibition was inconclusive: 1.43% [at 46 µM].

**Q.** Which ratio change, negative = inhibition does the source give for `Cc1ccc2nc(COc3ccccc3NC(=O)c3ccccc3F)cc(=O)n2c1` here?
**A.** Its ratio change, negative = inhibition is inconclusive: 3.27% [at 46 µM].

**Q.** Which Potency does the source give for `Cc1ccc2c(c1)c(CC(=O)Nc1ccc(C)c(F)c1)c(C(=O)O)n2C` here?
**A.** Its Potency is inconclusive: 25.1 µM [falling, single point].

**Q.** With `CC1CCN(c2ccc(NC(=O)c3ccccc3[N+](=O)[O-])cc2)CC1` as the compound, how does the ratio change, negative = inhibition read?
**A.** The ratio change, negative = inhibition was inconclusive: 11.4% [at 46 µM].

**Q.** Which ratio change, negative = inhibition does the source give for `Cc1oc(-c2cc(F)ccc2F)nc1CN1CCN(c2cnccn2)CC1` here?
**A.** The ratio change, negative = inhibition was inconclusive: -2.41% [at 46 µM].

**Q.** For `COc1cc(/C=C/c2nc(-c3ccccc3O)n[nH]2)cc(OC)c1OC`, which Potency is on record?
**A.** The Potency was inconclusive: 25.1 µM [falling, single point].

**Q.** For `C/C(Cn1cnc([N+](=O)[O-])n1)=N\NC(=O)c1cccc(F)c1`, which “ratio change, negative = inhibition” value is on record?
**A.** Its value is inactive: -2.13%.

**Q.** Which ratio change, negative = inhibition does the source give for `CC1=NN(c2nc3ccccc3[nH]2)C(=O)/C1=C/N(C)C` here?
**A.** The ratio change, negative = inhibition was inconclusive: 61% [at 46 µM].

**Q.** With `Cc1nn2c(-c3ccncc3)nnc2c2ccccc12` as the compound, how does the “ratio change, negative = inhibition” value read?
**A.** The value was inactive: -14.3%.

**Q.** With `CNc1ccc(/C=C/C(=O)c2ccc3c(c2)OCCO3)cc1[N+](=O)[O-]` as the compound, how does the ratio change, negative = inhibition read?
**A.** Its ratio change, negative = inhibition is inconclusive: 27.5%.

**Q.** Which ratio change, negative = inhibition does the source give for `Cc1cccc(NC(=O)c2sc3nc(-c4ccccc4)cn3c2C)c1C` here?
**A.** The ratio change, negative = inhibition was inconclusive: -12.3% [at 46 µM].

**Q.** For `O=C(CSc1n[nH]c(-c2ccccc2)n1)N1CCN(c2ccccc2F)CC1`, which ratio change, negative = inhibition is on record?
**A.** Its ratio change, negative = inhibition is inconclusive: 4.16% [at 46 µM].

**Q.** With `O=C(NC(=S)Nc1ccc2c(c1)OCCO2)c1cccc2ccccc12` as the compound, how does the Potency read?
**A.** The Potency was inconclusive: 35.5 µM [fluorescent, single point].

**Q.** For `Cc1ccccc1CC1(CO)CCCN(C(=O)CCCN2CCCCC2=O)C1` (centres undefined), which ratio change, negative = inhibition is on record?
**A.** The ratio change, negative = inhibition was inconclusive: 9.29% [at 46 µM].

**Q.** Which ratio change, negative = inhibition does the source give for `COc1ccc(-c2cn3c(n2)sc2cc(C(=O)NC4CCCCCC4)ccc23)cc1` here?
**A.** The ratio change, negative = inhibition was inconclusive: 15.6% [at 46 µM].

**Q.** Which ratio change, negative = inhibition does the source give for `Cc1c(-n2c(SCC(=O)N(C)C3CCS(=O)(=O)C3)nc3ccccc3c2=O)c(=O)n(-c2ccccc2)n1C` (centres undefined) here?
**A.** The ratio change, negative = inhibition was inconclusive: -33.1% [at 46 µM].

**Q.** With `Cc1ccc(S(=O)(=O)c2c(Nc3cc(C)ccc3C)sc(C(=O)c3ccc4c(c3)OCO4)c2N)cc1` as the compound, how does the ratio change, negative = inhibition read?
**A.** The ratio change, negative = inhibition was inconclusive: -16.6% [at 46 µM].

**Q.** With `Cc1ccc(C(=O)OCC(=O)c2c[nH]c3ccccc23)cc1NC(=O)c1ccco1` as the compound, how does the Potency read?
**A.** The Potency was inconclusive: 35.5 µM [inhibitor, single point].

**Q.** For `O=C(CS(=O)c1ccc(C(F)(F)F)cc1[N+](=O)[O-])Oc1ccccc1` (centres undefined), which ratio change, negative = inhibition is on record?
**A.** Its ratio change, negative = inhibition is inconclusive: 434%.

**Q.** For `OCCNCc1cc(Br)ccc1OCc1ccc(F)cc1`, which ratio change, negative = inhibition is on record?
**A.** The ratio change, negative = inhibition was inconclusive: -9.08% [at 46 µM].

**Q.** For `Cc1ccccc1C(=O)Nc1ccc(OCc2cc(=O)n3ccccc3n2)cc1`, which ratio change, negative = inhibition is on record?
**A.** Its ratio change, negative = inhibition is inconclusive: -11.1% [at 46 µM].

**Q.** With `Cc1ccc(CCNC(=O)c2c[nH]c3ccc(S(=O)(=O)Nc4ccc(C)cc4C)cc3c2=O)cc1` as the compound, how does the ratio change, negative = inhibition read?
**A.** The ratio change, negative = inhibition was inconclusive: 123% [at 46 µM].

**Q.** Which “ratio change, negative = inhibition” value does the source give for `COc1ccc(-n2c(Cc3cccn3C)nnc2SCC(=O)NCC2CCCO2)cc1` (centres undefined) here?
**A.** The value was inactive: -9.21%.

**Q.** Which ratio change, negative = inhibition does the source give for `Clc1ccccc1N/N=C/c1ccc2c(c1)OCO2` here?
**A.** Its ratio change, negative = inhibition is inconclusive: 5.24%.

**Q.** Which ratio change, negative = inhibition does the source give for `Cc1cccc(NC(=O)CN2C(=O)C(C)Oc3ccccc32)n1` (centres undefined) here?
**A.** The ratio change, negative = inhibition was inconclusive: 4.16% [at 46 µM].

**Q.** For `O/N=C/CCn1c(=S)sc2ccccc21`, which “ratio change, negative = inhibition” value is on record?
**A.** Its value is inactive: -1.66%.

**Q.** Which ratio change, negative = inhibition does the source give for `CC(C)C(C)NC(=O)COc1ccc(Sc2ccc(OCC(=O)NC(C)C(C)C)cc2)cc1` (centres undefined) here?
**A.** Its ratio change, negative = inhibition is inconclusive: -14.1%.

**Q.** Which ratio change, negative = inhibition does the source give for `COc1cccc(C(=O)NCC(c2ccc(N(C)C)cc2)N2CCc3ccccc32)c1` (centres undefined) here?
**A.** Its ratio change, negative = inhibition is inconclusive: -39.6% [at 46 µM].

**Q.** Which “ratio change, negative = inhibition” value does the source give for `COc1ccc(N2CCN(c3nc(=S)n(-c4ccccc4)c(C)c3C(C)=O)CC2)cc1` here?
**A.** The value was inactive: -5.21%.

**Q.** With `O=C(NCCNCc1cccs1)c1ccccc1F` as the compound, how does the ratio change, negative = inhibition read?
**A.** The ratio change, negative = inhibition was inconclusive: -8.44% [at 46 µM].

**Q.** Which ratio change, negative = inhibition does the source give for `CC(C)C(NC(=O)C(NC(=O)C1OC2OC(C)(C)OC2C2OC(C)(C)OC12)C(C)C)C(=O)O` (centres undefined) here?
**A.** Its ratio change, negative = inhibition is inconclusive: -5.93% [at 46 µM].

**Q.** For `Cc1cc(C)nc(N(C#N)CCOc2ccccc2)n1`, which ratio change, negative = inhibition is on record?
**A.** Its ratio change, negative = inhibition is inconclusive: 8.18%.

**Q.** For `CCn1c(SCC(=O)N2CCN(c3ccccc3)CC2)nnc1-c1c[nH]c2ccccc12`, which Potency is on record?
**A.** Its Potency is inconclusive: 11.2 µM [falling, partial curve].

**Q.** With `CCOc1ccc(CNC(=O)c2cnc3sc(N4CCOCC4)nn3c2=O)cc1` as the compound, how does the ratio change, negative = inhibition read?
**A.** Its ratio change, negative = inhibition is inconclusive: -3.74% [at 46 µM].

**Q.** For `CCOc1ccc(NC(=O)CN2CCN(CC(=O)c3ccc(OCC)cc3)CC2)cc1`, which “ratio change, negative = inhibition” value is on record?
**A.** Its value is inactive: 9.68%.

**Q.** With `COC(=O)Oc1nsnc1N1CCOCC1` as the compound, how does the “ratio change, negative = inhibition” value read?
**A.** The value was inactive: -3.04%.

**Q.** With `O=C(NCCSCc1ccc(Cl)cc1Cl)c1ccc(CN2CCOCC2)cc1` as the compound, how does the Potency read?
**A.** The Potency was inconclusive: 10 µM [fluorescent, partial curve].

**Q.** With `Cc1ccc(C(=O)COC(=O)CNS(=O)(=O)c2ccccc2)cc1[N+](=O)[O-]` as the compound, how does the ratio change, negative = inhibition read?
**A.** The ratio change, negative = inhibition was inconclusive: 18.1%.

**Q.** Which “ratio change, negative = inhibition” value does the source give for `COc1ccccc1OCC(=O)Nc1ccc(S(=O)(=O)Nc2cc(C)nc(C)n2)cc1` here?
**A.** Its value is inactive: -5.73%.

**Q.** With `Cc1cccc(N=C2NC(=O)/C(=C/c3cccs3)S2)c1` as the compound, how does the Potency read?
**A.** Its Potency is inconclusive: 35.5 µM [rising, single point].

**Q.** Which “ratio change, negative = inhibition” value does the source give for `O=C(/C=C\c1ccc(O)c(O)c1)O[C@@H]1C[C@](O)(C(=O)O)C[C@@H](O)[C@@H]1O` here?
**A.** The value was inactive: -10.8%.

**Q.** Which Potency does the source give for `Cc1cc(NCCCn2ccnc2)n2ncc(-c3ccc(Cl)cc3)c2n1` here?
**A.** The Potency was inconclusive: 35.5 µM [rising, single point].

**Q.** With `Clc1ccc(-c2cnn3c(-c4ccncc4)ccnc23)cc1` as the compound, how does the ratio change, negative = inhibition read?
**A.** Its ratio change, negative = inhibition is inconclusive: 24.6% [at 46 µM].

**Q.** Which “ratio change, negative = inhibition” value does the source give for `Cc1ccc(C)c(NC(=O)Cn2c(=O)nc(-c3ccccc3)c3ccccc32)c1` here?
**A.** Its value is inactive: -21.8% [at 46 µM].

**Q.** Which ratio change, negative = inhibition does the source give for `O=C(NCc1ccc2c(c1)OCO2)c1ccc(Cl)c(S(=O)(=O)N2CCOCC2)c1` here?
**A.** The ratio change, negative = inhibition was inconclusive: -20.4%.

**Q.** For `CCCn1c2ccccc2c2nnc(SCC(=O)Nc3cc(C)on3)nc21`, which “ratio change, negative = inhibition” value is on record?
**A.** Its value is inactive: -1.8%.
